These are yes or no findings as the source states them, for the method shown. Some entries that bind do so weakly or less than the wild type.
Legend:
[1] = target: His-tagged human Rap1b (human) (UniProt P61224); assay: pull-down; His-Rap1b GppNHp-bound with GST-SIN1^RBD, 25 ug of each, 50 mM Tris-Cl, 150 mM NaCl, 5 mM MgCl2, 1 mM beta-mercaptoethanol, pH 7.5; Ni-NTA resin 2 hours at 4 C; washes with 500 mM NaCl; Coomassie Blue; both purified
[2] = target: His-tagged human Rap1b (human) (UniProt P61224); assay: pull-down; His-Rap1b nucleotide free (EDTA) with GST-SIN1^RBD, 25 ug of each, same buffer; Ni-NTA resin 2 hours at 4 C; washes with 500 mM NaCl; Coomassie Blue; both purified

By UniProt entry, the sequences of proteins in these tests, tags left out. Residues count along the entry.
UniProt P61224: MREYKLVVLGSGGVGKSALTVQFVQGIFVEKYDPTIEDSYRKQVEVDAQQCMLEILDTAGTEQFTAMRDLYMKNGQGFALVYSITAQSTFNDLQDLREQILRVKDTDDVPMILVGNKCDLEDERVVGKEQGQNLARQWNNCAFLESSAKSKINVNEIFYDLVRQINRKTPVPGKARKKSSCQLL
UniProt Q9BPZ7, residues 266-374: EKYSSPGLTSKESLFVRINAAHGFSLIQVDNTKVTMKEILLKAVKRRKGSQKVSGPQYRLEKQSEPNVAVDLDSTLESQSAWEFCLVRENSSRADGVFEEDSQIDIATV

- binding [1]: binds
Substance: GST-SIN1^RBD (aa 266-374) (from UniProt Q9BPZ7 266-374) (domain or fragment)
- binding [2]: no binding (condition: nucleotide free Rap1b (EDTA))
